Data as given in PubChem BioAssay AID1259405 (NCATS, 2018)
In all, the deposit lists about 50,000 reagents; below is a part drawn at random. Over the whole deposit, about 4,000 (8%) got an active call. 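Mouse siRNA library applied to hamster cells; one well for each siRNA.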 A number with no mark means an inactive call. Reagents against one gene are numbered here. Reagent sequences are not shown.

Purpose: 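Mouse-designed siRNAs used to find CHO productivity engineering targets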 (primary screen)
System: Chinese hamster CHO-K1 ovary cells with stable secreted eGFP expression
Knock-down reagent: single siRNA against mouse genes, 0.8 pmol siRNA per well (2 µl of 400 nM stock)
Time to read-out: 3 days
Measurement: 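Percent of the per-plate non-targeting control median for intracellular GFP per well by laser scanning cytometry and for cell viability by ATP luminescence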
Reading the numbers: GFP, % of control: higher = more GFP per well, higher productivity; viability (ATP), % of control: higher = more viable cells (more ATP)
Hit rule: 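a knock-down is called active if GFP reaches 120% or more of non-targeting control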

gene knocked down,siRNA no.,"GFP, % of control","viability (ATP), % of control"
Or5ac20,1,45.8,60.7
Or5ac20,2,76.7,81.7
Or5ac20,3,41.3,85.6
Ptprn,1,56.9,79.6
Ptprn,2,130 (active),97.9
Ythdf3,1,76.6,48.2
Ythdf3,2,78.4,78.3
Ythdf3,3,69,81.1
Or5p58,1,84.1,37.5
Or5p58,2,107,87.5
Or5p58,3,93.4,61.3
Czib,1,86.7,97.8
Czib,2,82.1,53
Czib,3,72.2,75.9
Pttg1,1,82,91.1
Pttg1,2,67.2,76.7
Pttg1,3,70.3,87.9
Ankrd34a,1,54.1,68.7
Ankrd34a,2,54.1,92.1
Ankrd34a,3,79.9,33.4
Col6a1,1,88.4,109
Col6a1,2,71.2,82.3
Ppp1r13l,1,99,60.9
Ppp1r13l,2,158 (active),82
Ppp1r13l,3,91.1,83.1
Cggbp1,1,52.3,76.8
Cggbp1,2,54.5,82.4
Cggbp1,3,82.5,109
Fam171a2,1,68,115
Fam171a2,2,58.4,76.5
Fam171a2,3,94.1,116
Egr2,1,49.2,85.2
Egr2,2,53.7,48.5
Mapk8,1,97.6,100
Mapk8,2,61.7,55.9
Mapk8,3,97,98.1
Cntrob,1,79.5,65.8
Cntrob,2,57.8,60.4
Cntrob,3,65.5,57
Itgae,1,62.5,70.3
Itgae,2,89.2,80.3
Pkhd1l1,1,74.9,59.3
Pkhd1l1,2,45.6,40.3
Pkhd1l1,3,82.1,61.2
Camk4,1,47.9,57.8
Smyd5,1,88.6,114
Smyd5,2,72.8,80.3
Smyd5,3,58.7,59.4
Lgals3bp,1,113,102
Lgals3bp,2,73.9,84.3
Lgals3bp,3,103,75
Or10ag58,1,81.3,62.5
Or10ag58,2,85,66
Or10ag58,3,96.5,123
Mrgpra1,1,91.1,76.8
Mrgpra1,2,63.1,76.6
Mrgpra1,3,94.6,88.8
Adam29,1,102,92.3
Adam29,2,94.3,52.7
Adam29,3,94.6,82.9
Or51e2,1,101,80
Or51e2,2,110,104
Or51e2,3,49.4,44.3
Nphp4,1,126 (active),65.9
Nphp4,2,110,73.7
Nphp4,3,79.1,71.3
Or2w6,1,113,85.4
Or2w6,2,26.2,30.5
Or2w6,3,37.9,78.8
Mrpl18,1,44.8,50.2
Mrpl18,2,123 (active),82.9
Mrpl18,3,107,59.1
Klrd1,1,129 (active),116
Klrd1,2,89.9,70
Tfr2,1,78,73.3
Tfr2,2,102,90
Tfr2,3,91.4,101
Fbxl20,1,70.7,72.2
Fbxl20,2,45.8,50.8
Fbxl20,3,97.7,94.1
A530013C23Rik,1,86.7,102
A530013C23Rik,2,58.9,57.7
A530013C23Rik,3,94.9,99.3
Bcas2,1,53.4,78.5
Bcas2,2,76.4,92.3
Bcas2,3,122 (active),141
Sertm1,1,71.8,51.9
Sertm1,2,109,106
Sertm1,3,102,102
Ribc1,1,34,47.2
Ribc1,2,76.4,79.1
Ribc1,3,84.2,69.2
Upk2,1,96,72.4
Upk2,2,56,77.3
Upk2,3,52.5,50.9
Galnt6,1,92.4,93.8
Galnt6,2,73.3,107
Galnt6,3,85,108
Gramd1b,1,43.3,70.2
Gramd1b,2,19.8,63.9
Gramd1b,3,43.3,64.2
Rasl2-9,1,105,74.2
Rasl2-9,2,91.3,86.3
Rasl2-9,3,64.9,55.3
Eef1d,1,57.5,50.1
Eef1d,2,99.1,64.3
Eef1d,3,163 (active),106

Records above whose target name begins with B or b (3):
gene knocked down,siRNA no.,"GFP, % of control","viability (ATP), % of control"
Bcas2,1,53.4,78.5
Bcas2,2,76.4,92.3
Bcas2,3,122 (active),141
